The results in this text go back to publication PMC7819943, “Rice protein-binding microarrays: a tool to detect cis-acting elements near promoter regions in rice”.

The other results are listed elsewhere or left out.

This test addresses T1, OsSMF1 (Oryza sativa, UniProt Q6ZLB0 1-436).
T1 sequence: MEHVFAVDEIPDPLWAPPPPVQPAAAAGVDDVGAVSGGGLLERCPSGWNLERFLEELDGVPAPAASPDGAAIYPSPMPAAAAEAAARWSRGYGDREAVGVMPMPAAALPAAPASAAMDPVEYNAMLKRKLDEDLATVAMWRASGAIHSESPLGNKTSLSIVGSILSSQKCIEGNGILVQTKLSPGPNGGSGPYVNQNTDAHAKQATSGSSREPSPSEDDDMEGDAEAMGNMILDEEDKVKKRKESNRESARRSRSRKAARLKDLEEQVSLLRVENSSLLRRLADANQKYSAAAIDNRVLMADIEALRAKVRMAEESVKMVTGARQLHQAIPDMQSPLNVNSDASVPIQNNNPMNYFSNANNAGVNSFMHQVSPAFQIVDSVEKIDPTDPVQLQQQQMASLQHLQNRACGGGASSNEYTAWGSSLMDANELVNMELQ
The test can be described thus: protein-binding microarray (RPBM); PBS, 2% BSA, 51.3 ng/ul salmon testes DNA, 50 uM zinc acetate, 200 nM TF, 25 C, 1 h; high values mean tight binding. Conditions: protein: recombinant; tags: N-terminal polyhistidine and DsRed monomer fusion (pET32a); chain copies: 2; label: CyDye5-dUTP incorporated in the synthesized complementary strand; 3' TTTTT single-stranded linker to array surface; dsDNA, one strand shown. Put shortly:
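Binding signal is reported as fluorescence intensity per feature (arbitrary units) from an Axon 4000B scanner. Incubation used 200 nM of each Ni–NTA-purified, N-terminally polyhistidine- and DsRed-fused transcription factor from E. coli BL21-CodonPlus on a double-stranded custom Agilent array for 1 h at 25 °C, with 50 µM zinc acetate in the buffer, followed by washing.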
Regarding “TGCGGGATTACGGAATGGGGTTTGATGGGAGTTGCGTCATCGGAGTCACCTAGTGCAG”, the binding signal was 5240 fluorescence intensity (a.u.).

Consider “GCGGTCGCCCTGCGCACTCTCGCCGCGTCACCACCGGAGCCGGAGTCACCTAGTGCAG”, for which the binding signal was 6390 fluorescence intensity (a.u.).

As to “GATGGACCTTATTCCCACGGAGACCTGGCAGGATTTAGCTCGGAGTCACCTAGTGCAG”, the binding signal was 3200 fluorescence intensity (a.u.).

With “GCGCAAAAGCAAAGCCACGCTTTTCGTCAGGTTGATCTCTCGGAGTCACCTAGTGCAG”, the binding signal was 3490 fluorescence intensity (a.u.).

Take “TTGGCGTCCGCGCTGGTGACGTTGGCACTGGCGTAGGCGCCGGAGTCACCTAGTGCAG”: the binding signal was 9280 fluorescence intensity (a.u.).

As for “GATTAGCTTGTGTCATTCGCTAGAATAGAATGATGTGGTTCGGAGTCACCTAGTGCAG”, the binding signal is 5210 fluorescence intensity (a.u.).

With “GAGTCCGGCGTGATGCCGTGATGACGCCGCAACGCGGCATCGGAGTCACCTAGTGCAG”, the binding signal was 9060 fluorescence intensity (a.u.).

Turning to “ATCTACTGATTTACAACCTCCTTAATTAACAAGCACGGGTCGGAGTCACCTAGTGCAG”, the binding signal was 24600 fluorescence intensity (a.u.).

For the sequence “GTCGGAGCTCCTGTCGGCGCGTCGCGTCGCCACGTACGGCCGGAGTCACCTAGTGCAG”, the binding signal was 8050 fluorescence intensity (a.u.).

Turning to “TCCCTCCTCTTCCACGTCCGCGCAGCCGGCTCCCTCCACACGGAGTCACCTAGTGCAG”, the binding signal was 7740 fluorescence intensity (a.u.).

Regarding “GATTCCTGCTGGCAATAACACACTATGATATCTGCGACCACGGAGTCACCTAGTGCAG”, the binding signal was 4120 fluorescence intensity (a.u.).

As for “GGCTTTGGGGATTGGATATCCGAGGCCGTCGATGACGTGGCGGAGTCACCTAGTGCAG”, the binding signal is 34300 fluorescence intensity (a.u.).

On to “GACCTCCGCTGGGGTGGGTCCACCAACAGGCAACGCATACCGGAGTCACCTAGTGCAG”, for which the binding signal is 6040 fluorescence intensity (a.u.).

Turning to “GCCTAGGTCTACAGTTCACTCGCTATCCACGCACAGCCCGCGGAGTCACCTAGTGCAG”, the binding signal is 3350 fluorescence intensity (a.u.).

Take “GCATGCTAATTAAAGTGTTCGTTGCTGTTTCGTCGCATGCCGGAGTCACCTAGTGCAG”: the binding signal was 4710 fluorescence intensity (a.u.).

As for “CAAGATATGCGTTTGTGCCTTCATGGGTGAGTCCACGCGTCGGAGTCACCTAGTGCAG”, the binding signal was 3850 fluorescence intensity (a.u.).

Consider “TGCATGCTTGCCGCTAGGCGCTGACTGGTGACGCCTGTTGCGGAGTCACCTAGTGCAG”, for which the binding signal is 6350 fluorescence intensity (a.u.).

Take “CTATAGGCTCTCTACAAGAGATCTATGTCAGCATATTTTCCGGAGTCACCTAGTGCAG”: the binding signal was 6250 fluorescence intensity (a.u.).

Consider “AAATTCAGCATTCCTGGTTCAGCTTAATGCTTTGCTTACGCGGAGTCACCTAGTGCAG”, for which the binding signal is 4100 fluorescence intensity (a.u.).

Take “CATTATGCATCTTCTATTCCTGACTTCATTGACTGGTCTCCGGAGTCACCTAGTGCAG”: the binding signal is 3250 fluorescence intensity (a.u.).

As to “GCGTCTCTACTCCTCTCCCTGCATCTGGTATACGTATCTTCGGAGTCACCTAGTGCAG”, the binding signal was 3170 fluorescence intensity (a.u.).

As to “GTCCAACTCTTATCAACCGATTCATGGACACTTTAAATGTCGGAGTCACCTAGTGCAG”, the binding signal was 3230 fluorescence intensity (a.u.).

Take “CATGCGCCCACCTACATGTGAGCATGTGTATTGTCCTGAACGGAGTCACCTAGTGCAG”: the binding signal was 3390 fluorescence intensity (a.u.).

In the case of “GAGCCTTGAATATATCGTGGACCATGTTGGAGCAGAAAATCGGAGTCACCTAGTGCAG”, the binding signal is 3470 fluorescence intensity (a.u.).

Regarding “AAAGAATGACGATATGATGTGAGAAGTTTGTGAAGACTTGCGGAGTCACCTAGTGCAG”, the binding signal was 41100 fluorescence intensity (a.u.).

Take “AGGCGAGCGAGGCGGGTGGGCGGGGAGCGAACCAACGACGCGGAGTCACCTAGTGCAG”: the binding signal was 4420 fluorescence intensity (a.u.).

As for “TTGAGAAAGGTTCTAGCGGATGAAGATTCTAGAAGAAGCTCGGAGTCACCTAGTGCAG”, the binding signal was 30600 fluorescence intensity (a.u.).

For “CCCGGTGTGTCACCGGTCTATAAGAGACCCCTGTACTCCTCGGAGTCACCTAGTGCAG”, the binding signal was 3640 fluorescence intensity (a.u.).

In the case of “AAAGTAAGATATTTATACTGTCCTTCCATACTTGTGACGTCGGAGTCACCTAGTGCAG”, the binding signal was 3650 fluorescence intensity (a.u.).

“GACGTGTTCCTCTGCAACGTCATGCTCGCTGCGTACGTCTCGGAGTCACCTAGTGCAG”: the binding signal is 8520 fluorescence intensity (a.u.).

“CCAGTATATGTGTATGTGTGCTTACCAGTGTTTTAAATCGCGGAGTCACCTAGTGCAG”: the binding signal is 3620 fluorescence intensity (a.u.).

Consider “GCTCGTCGTCGCCACCTCACCACCACACACGCGCAGCCAACGGAGTCACCTAGTGCAG”, for which the binding signal is 5390 fluorescence intensity (a.u.).

As to “TCATCAAGTGACTAAATTCGGCCACCTCACCATCGTACCACGGAGTCACCTAGTGCAG”, the binding signal is 5870 fluorescence intensity (a.u.).

As to “ACAGGCATTAGCCAAAGGTCCTTGTCACTGAGTAAGTGGGCGGAGTCACCTAGTGCAG”, the binding signal is 3720 fluorescence intensity (a.u.).

Consider “GAGCGGCCAAACCCTCGACAAGCATCGTCAGCAGCAGCAGCGGAGTCACCTAGTGCAG”, for which the binding signal is 3340 fluorescence intensity (a.u.).

As for “TGTCCTCTAATTTCGTTTTGCACTCGCTTTCCACCGCTACCGGAGTCACCTAGTGCAG”, the binding signal was 30400 fluorescence intensity (a.u.).

For the sequence “ACGTATAGAGATACATACACCGATACACGTACGTACGTACCGGAGTCACCTAGTGCAG”, the binding signal was 5340 fluorescence intensity (a.u.).

Regarding “TGGCCACGTCTCAATCTCTCTCTCTCGCGCTCTCCTCTCCCGGAGTCACCTAGTGCAG”, the binding signal is 4650 fluorescence intensity (a.u.).

For “AGGGAGGGCGCAACGTGTGGGTGATCGTGCATTAGCGCTCCGGAGTCACCTAGTGCAG”, the binding signal was 3150 fluorescence intensity (a.u.).

As to “TCAAGCGCAGACGCGTGGTGTGGTTGTATTTTCCTTTTCCCGGAGTCACCTAGTGCAG”, the binding signal was 4200 fluorescence intensity (a.u.).

Take “GGTGTGGCGCTGCAGTGTTTTGATACGTGGAAATTGTCCGCGGAGTCACCTAGTGCAG”: the binding signal is 3280 fluorescence intensity (a.u.).

For the sequence “TTTACGTGATCCTCTTTTCCTCAGAGGCTCAGACGTCAGTCGGAGTCACCTAGTGCAG”, the binding signal was 3280 fluorescence intensity (a.u.).
